Experimental data: PubChem BioAssay AID504764 (Drosophila RNAi Screening Center, 2011)
Test: 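Genes whose knock-down alters Notch-dependent transcription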 (primary screen). System: Drosophila Kc167 cells. Reagents: long dsRNA against Drosophila genes. Duration: about 5 days (4 days dsRNA, then 24 h after transfection). Treatment: transfection of constitutively active membrane-tethered Notch lacking the extracellular domain, read 24 h later. Measured: 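Light from a Notch-responsive E(spl)m3 luciferase reporter under active Notch, with control-promoter and no-Notch reporter wells to normalise; raw counts from paired wells a and b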. Reading the numbers: induced reporter light, run 1, well a and induced reporter light, run 1, well b: higher = more light from the Notch target reporter with active Notch; control promoter light, run 1, well a and control promoter light, run 1, well b: higher = more light from the viral control promoter (cell number, transfection, viability); uninduced reporter light, run 1, well a: higher = more light from the Notch target reporter without active Notch. Active means: 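Hit if the duplicate-averaged log2 ratio of induced to control-promoter light gives a plate-wise z beyond ±2, or induced to uninduced beyond ±1.8; weak-control or discordant-duplicate wells dropped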. Calls: active = modifier hit (raised or lowered Notch signal); inactive = not a hit.
The deposit covers about 22,000 reagents; shown is an unselected part of those that have a named target and a result. In the full data, 403 (1.9%) are marked active. 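Unnormalised raw counts per well; ratio z-scores behind the hit calls and whether each hit raises or lowers signal are not deposited.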 Entries without a mark were called inactive. Not stated in the record: the amount of reagent.

The opening 2 records, ahead of the listing:
| target gene | DRSC id | induced reporter light, run 1, well a | induced reporter light, run 1, well b | control promoter light, run 1, well a | control promoter light, run 1, well b | uninduced reporter light, run 1, well a |
| --- | --- | --- | --- | --- | --- | --- |
| dar1 | DRSC08049 | 2.60e5 | 2.35e5 | 2.19e5 | 2.30e5 | 17790 |
| dar1 | DRSC08233 | 1.03e5 | 1.18e5 | 2.21e5 | 1.38e5 | 6930 |

Main list, repeating the preview:
| target gene | DRSC id | induced reporter light, run 1, well a | induced reporter light, run 1, well b | control promoter light, run 1, well a | control promoter light, run 1, well b | uninduced reporter light, run 1, well a |
| --- | --- | --- | --- | --- | --- | --- |
| dar1 | DRSC08049 | 2.60e5 | 2.35e5 | 2.19e5 | 2.30e5 | 17790 |
| dar1 | DRSC08233 | 1.03e5 | 1.18e5 | 2.21e5 | 1.38e5 | 6930 |
| CG15306 | DRSC17993 | 1.00e5 | 87450 | 1.19e5 | 1.11e5 | 5260 |
| CG15306 | DRSC18240 | 65675 | 58230 | 63320 | 70115 | 5070 |
| CG6179 | DRSC19973 | 1.28e5 | 1.30e5 | 1.40e5 | 1.74e5 | 15150 |
| Sobp | DRSC07312 | 1.08e5 | 1.20e5 | 1.08e5 | 87690 | 11075 |
| CG15539 | DRSC15075 | 1.88e5 | 1.67e5 | 1.87e5 | 1.88e5 | 14165 |
| CG31686 (retired record) | DRSC00102 | 1.13e5 | 88895 | 1.19e5 | 1.29e5 | 7480 |
| Blos1 | DRSC05970 | 1.09e5 | 1.06e5 | 1.38e5 | 1.34e5 | 9382 |
| sbm | DRSC20185 | 47825 | 38240 | 34955 | 32970 | 5750 |
| La | DRSC03358 | 18130 | 18755 | 28065 | 18925 | 1755 |
| RhoGAP68F | DRSC10717 | 1.27e5 | 98215 | 81020 | 40430 | 11455 |
| CG32204 | DRSC09574 | 2.07e5 | 1.65e5 | 2.85e5 | 2.42e5 | 17390 |
| MFS9 | DRSC15560 | 2.03e5 | 2.14e5 | 2.43e5 | 2.78e5 | 16628 |
| CG7744 | DRSC07036 | 1.05e5 | 96855 | 2.05e5 | 2.12e5 | 8638 |
| MAGE | DRSC12504 | 86520 | 1.07e5 | 1.09e5 | 1.12e5 | 11200 |
| CG7183 | DRSC16210 | 2.49e5 | 1.93e5 | 2.76e5 | 2.83e5 | 18335 |
| obst-B | DRSC01987 | 2.25e5 | 1.92e5 | 1.93e5 | 1.95e5 | 17320 |
| CG32050 (retired record) | DRSC10173 | 1.09e5 | 77470 | 67140 | 66325 | 8680 |
| CG7115 | DRSC02000 | 1.22e5 | 1.48e5 | 76515 | 81890 | 22325 |
